The target in the test is rat GluN1a splice variant construct with a deletion from M848 to S938, GFP-tagged (wild type) (rat) (UniProt P35439). Briefly: cross-linking; GluN1 subunit expressed alone in tsA201 cells; dodecylmaltoside whole-cell extract, non-reducing SDS-PAGE, Western blot with GFP antibody.

No constants are given. Whether binding was seen depends on the method and setting. Binding seen in cells or lysates may run through a third protein. Some entries that bind do so weakly or less than the wild type.

“rat GluN1a splice variant construct with a deletion from M848 to S938, GFP-tagged (wild type) (from UniProt P35439-1 19-847) (receptor)”: the binding result is reported as “binds weakly”.

Source of the values: publication PMC3081335.
